These are yes or no findings as the source states them, for the method shown. Binding seen in cells or lysates may run through a third protein. Some results given as binding are weak or reduced against the parent protein; the word gives no strength.
Molecular target: T1, protein FAM86A (family with sequence similarity 86, member A) (mouse (murine melanoma B16F10 cells; Table 1 lists the gene FAM86 under Mus musculus)) (UniProt Q3UZW7)
T1 sequence: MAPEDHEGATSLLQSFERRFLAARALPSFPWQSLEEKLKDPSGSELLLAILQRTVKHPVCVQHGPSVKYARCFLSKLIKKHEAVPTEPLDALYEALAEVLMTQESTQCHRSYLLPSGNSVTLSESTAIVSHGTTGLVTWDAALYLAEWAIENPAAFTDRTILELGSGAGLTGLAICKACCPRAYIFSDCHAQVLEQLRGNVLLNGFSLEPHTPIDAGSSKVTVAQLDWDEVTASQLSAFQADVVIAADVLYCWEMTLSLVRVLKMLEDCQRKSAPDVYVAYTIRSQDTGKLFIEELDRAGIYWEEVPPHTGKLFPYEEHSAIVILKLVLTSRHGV
Test: co-immunoprecipitation with anti-MC1R antibody and protein A/G-agarose beads from B16F10 cell lysate, SDS-PAGE

By UniProt entry, the sequences of proteins in these tests, tags left out.
UniProt Q01727: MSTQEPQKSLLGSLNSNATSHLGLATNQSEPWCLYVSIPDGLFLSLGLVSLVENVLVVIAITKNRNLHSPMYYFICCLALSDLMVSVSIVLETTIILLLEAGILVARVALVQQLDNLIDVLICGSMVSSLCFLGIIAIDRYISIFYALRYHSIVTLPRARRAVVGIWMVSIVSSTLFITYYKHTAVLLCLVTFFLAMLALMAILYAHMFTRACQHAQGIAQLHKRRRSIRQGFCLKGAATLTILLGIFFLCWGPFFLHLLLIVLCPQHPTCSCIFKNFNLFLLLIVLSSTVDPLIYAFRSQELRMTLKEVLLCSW

binding: binds
Substance: MC1R protein (melanocortin 1 receptor) (from UniProt Q01727 1-315)

— patent US20220334130A1
